# Assay results as given in the supplement of paper PMC8728848.
# Some of the results follow.
# Key:
# Experiment in all cases: glycan array binding signal (z-score within array); higher = stronger binding
# Settings in all cases: glycan notation: IUPAC condensed, linker removed
# Fuc(a1-2)Gal = target: Fuc(a1-2)Gal
# Summary of the method: (§1)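 The binding signal is a Z-score computed within each array. Data were drawn from 3228 arrays in the Consortium for Functional Glycomics database, restricted to those with a known protein sequence. Scores were averaged over arrays of the same protein sequence at different concentrations or buffers, and over linkers, and negative values can be taken as non-binding.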
# Fuc(a1-2)Gal(b1-3)GalNAc = target: Fuc(a1-2)Gal(b1-3)GalNAc
# Summary of the method: as §1
# [1] = target: Fuc(a1-2)Gal(b1-3)GalNAc(a1-3)[Fuc(a1-2)]Gal(b1-4)Glc
# Summary of the method: as §1
# [2] = target: Fuc(a1-2)Gal(b1-3)GalNAc(a1-3)[Fuc(a1-2)]Gal(b1-4)GlcNAc
# Summary of the method: as §1
# [3] = target: Fuc(a1-2)Gal(b1-3)GalNAc(b1-3)Gal
# Summary of the method: as §1
# [4] = target: Fuc(a1-2)Gal(b1-3)GalNAc(b1-3)Gal(a1-4)Gal(b1-4)Glc
# Summary of the method: as §1
# [5] = target: Fuc(a1-2)Gal(b1-3)GalNAc(b1-4)[Neu5Ac(a2-3)]Gal(b1-4)Glc
# Summary of the method: as §1
# Fuc(a1-2)Gal(b1-3)GlcNAc = target: Fuc(a1-2)Gal(b1-3)GlcNAc
# Summary of the method: as §1
# [6] = target: Fuc(a1-2)Gal(b1-3)GlcNAc(b1-2)Man(a1-3)[Fuc(a1-2)Gal(b1-3)GlcNAc(b1-2)Man(a1-6)]Man(b1-4)GlcNAc(b1-4)GlcNAc
# Summary of the method: as §1
# [7] = target: Fuc(a1-2)Gal(b1-3)GlcNAc(b1-2)Man(a1-3)[Fuc(a1-2)Gal(b1-3)GlcNAc(b1-2)Man(a1-6)]Man(b1-4)GlcNAc(b1-4)[Fuc(a1-6)]GlcNAc
# Summary of the method: as §1
# [8] = target: Fuc(a1-2)Gal(b1-3)GlcNAc(b1-3)Gal(b1-4)Glc
# Summary of the method: as §1
# [9] = target: Fuc(a1-2)Gal(b1-3)GlcNAc(b1-3)GalNAc
# Summary of the method: as §1
# [10] = target: Fuc(a1-2)Gal(b1-3)GlcNAc(b1-3)[Fuc(a1-3)[Gal(b1-4)]GlcNAc(b1-6)]Gal(b1-4)Glc
# Summary of the method: as §1
# [11] = target: Fuc(a1-2)Gal(b1-3)GlcNAc(b1-3)[Gal(b1-4)GlcNAc(b1-6)]Gal(b1-4)Glc
# Summary of the method: as §1
# [12] = target: Fuc(a1-2)Gal(b1-3)GlcNAc(b1-3)[Neu5Ac(a2-6)Gal(b1-4)GlcNAc(b1-6)]Gal(b1-4)Glc
# Summary of the method: as §1
# [13] = target: Fuc(a1-2)Gal(b1-3)[Fuc(a1-4)]GlcNAc
# Summary of the method: as §1
# [14] = target: Fuc(a1-2)Gal(b1-3)[Fuc(a1-4)]GlcNAc(b1-2)Man(a1-3)[Fuc(a1-2)Gal(b1-3)[Fuc(a1-4)]GlcNAc(b1-2)Man(a1-6)]Man(b1-4)GlcNAc(b1-4)GlcNAc
# Summary of the method: as §1
# [15] = target: Fuc(a1-2)Gal(b1-3)[Fuc(a1-4)]GlcNAc(b1-3)[Fuc(a1-3)[Gal(b1-4)]GlcNAc(b1-6)]Gal(b1-4)Glc
# Summary of the method: as §1
# [16] = target: Fuc(a1-2)Gal(b1-3)[Fuc(a1-4)]GlcNAc(b1-3)[Gal(b1-4)GlcNAc(b1-6)]Gal(b1-4)Glc
# Summary of the method: as §1
# Fuc(a1-2)Gal(b1-4)Glc = target: Fuc(a1-2)Gal(b1-4)Glc
# Summary of the method: as §1
# Fuc(a1-2)Gal(b1-4)Glc6S = target: Fuc(a1-2)Gal(b1-4)Glc6S
# Summary of the method: as §1
# Fuc(a1-2)Gal(b1-4)GlcNAc = target: Fuc(a1-2)Gal(b1-4)GlcNAc
# Summary of the method: as §1
# [17] = target: Fuc(a1-2)Gal(b1-4)GlcNAc(b1-2)Man(a1-3)[Fuc(a1-2)Gal(b1-4)GlcNAc(b1-2)Man(a1-6)]Man(b1-4)GlcNAc(b1-4)GlcNAc
# Summary of the method: as §1
# [18] = target: Fuc(a1-2)Gal(b1-4)GlcNAc(b1-2)Man(a1-3)[Fuc(a1-2)Gal(b1-4)GlcNAc(b1-2)Man(a1-6)]Man(b1-4)GlcNAc(b1-4)[Fuc(a1-6)]GlcNAc
# Summary of the method: as §1
# [19] = target: Fuc(a1-2)Gal(b1-4)GlcNAc(b1-2)[Fuc(a1-2)Gal(b1-4)GlcNAc(b1-4)]Man(a1-3)[Fuc(a1-2)Gal(b1-4)GlcNAc(b1-2)Man(a1-6)]Man(b1-4)GlcNAc(b1-4)GlcNAc
# Summary of the method: as §1
# [20] = target: Fuc(a1-2)Gal(b1-4)GlcNAc(b1-3)Gal(b1-4)GlcNAc
# Summary of the method: as §1
# [21] = target: Fuc(a1-2)Gal(b1-4)GlcNAc(b1-3)Gal(b1-4)GlcNAc(b1-3)Gal(b1-4)GlcNAc
# Summary of the method: as §1
# [22] = target: Fuc(a1-2)Gal(b1-4)GlcNAc(b1-3)GalNAc
# Summary of the method: as §1
# [23] = target: Fuc(a1-2)Gal(b1-4)GlcNAc(b1-3)[Fuc(a1-2)Gal(b1-4)GlcNAc(b1-6)]GalNAc
# Summary of the method: as §1
# [24] = target: Fuc(a1-2)Gal(b1-4)GlcNAc6S
# Summary of the method: as §1
binder,measurement,setting,value
"CD72 ectodomain (Homo sapiens), P21854 (protein) RYLQVSQQLQQTNRVLEVTNSSLRQQLRLKITQLGQSAEDLQGSRRELAQSQEALQVEQRAHQAAEGQLQACQADRQKTKETLQSEEQQRRALEQKLSNMENRLKPFFTCGSADTCCPSGWIMHQKSCFYISLTSKNWQESQKQCETLSSKLATFSEIYPQSHSYYFLNSLLPNGGSGNSYWTGLSSNKDWKLTDDTQRTRTYAQSSKCNKVHKTWSWWTLESESCRSSLPYICEMTAFRFPD",glycan array binding signal (z-score),Fuc(a1-2)Gal,0.269
same,glycan array binding signal (z-score),Fuc(a1-2)Gal(b1-3)GalNAc,-0.551
same,glycan array binding signal (z-score),[1],1.18
same,glycan array binding signal (z-score),[2],-1.21
same,glycan array binding signal (z-score),[3],-0.429
same,glycan array binding signal (z-score),[4],-0.867
same,glycan array binding signal (z-score),[5],0.01
same,glycan array binding signal (z-score),Fuc(a1-2)Gal(b1-3)GlcNAc,1.12
same,glycan array binding signal (z-score),[6],1.96
same,glycan array binding signal (z-score),[7],-0.47
same,glycan array binding signal (z-score),[8],0.488
same,glycan array binding signal (z-score),[9],-0.037
same,glycan array binding signal (z-score),[10],0.343
same,glycan array binding signal (z-score),[11],0.07
same,glycan array binding signal (z-score),[12],-1.56
same,glycan array binding signal (z-score),[13],-0.346
same,glycan array binding signal (z-score),[14],-0.538
same,glycan array binding signal (z-score),[15],-0.186
same,glycan array binding signal (z-score),[16],0.015
same,glycan array binding signal (z-score),Fuc(a1-2)Gal(b1-4)Glc,-0.221
same,glycan array binding signal (z-score),Fuc(a1-2)Gal(b1-4)Glc6S,1.24
same,glycan array binding signal (z-score),Fuc(a1-2)Gal(b1-4)GlcNAc,-0.018
same,glycan array binding signal (z-score),[17],-1.39
same,glycan array binding signal (z-score),[18],1.93
same,glycan array binding signal (z-score),[19],1.08
same,glycan array binding signal (z-score),[20],-0.976
same,glycan array binding signal (z-score),[21],-0.885
same,glycan array binding signal (z-score),[22],1.08
same,glycan array binding signal (z-score),[23],1.7
same,glycan array binding signal (z-score),[24],1.04

# In another format: results already given.
binder	measurement	setting	value
CD72 ectodomain (Homo sapiens), P21854 (protein) RYLQVSQQLQQTNRVLEVTNSSLRQQLRLKITQLGQSAEDLQGSRRELAQSQEALQVEQRAHQAAEGQLQACQADRQKTKETLQSEEQQRRALEQKLSNMENRLKPFFTCGSADTCCPSGWIMHQKSCFYISLTSKNWQESQKQCETLSSKLATFSEIYPQSHSYYFLNSLLPNGGSGNSYWTGLSSNKDWKLTDDTQRTRTYAQSSKCNKVHKTWSWWTLESESCRSSLPYICEMTAFRFPD	glycan array binding signal (z-score)	[23]	1.7
same	glycan array binding signal (z-score)	[24]	1.04
